Assay results reported in paper PMC10516997.
No constants are given. Whether binding was seen depends on the method and setting. In cells and extracts the contact can be indirect. Here binding means that the protein was enriched with, or labelled near, the bait; the list need not be complete. Where a sequence is shown, tags or fusion partners need not be part of it.

Amino acid sequences for entries named in this document (tags omitted).
UniProt Q13547: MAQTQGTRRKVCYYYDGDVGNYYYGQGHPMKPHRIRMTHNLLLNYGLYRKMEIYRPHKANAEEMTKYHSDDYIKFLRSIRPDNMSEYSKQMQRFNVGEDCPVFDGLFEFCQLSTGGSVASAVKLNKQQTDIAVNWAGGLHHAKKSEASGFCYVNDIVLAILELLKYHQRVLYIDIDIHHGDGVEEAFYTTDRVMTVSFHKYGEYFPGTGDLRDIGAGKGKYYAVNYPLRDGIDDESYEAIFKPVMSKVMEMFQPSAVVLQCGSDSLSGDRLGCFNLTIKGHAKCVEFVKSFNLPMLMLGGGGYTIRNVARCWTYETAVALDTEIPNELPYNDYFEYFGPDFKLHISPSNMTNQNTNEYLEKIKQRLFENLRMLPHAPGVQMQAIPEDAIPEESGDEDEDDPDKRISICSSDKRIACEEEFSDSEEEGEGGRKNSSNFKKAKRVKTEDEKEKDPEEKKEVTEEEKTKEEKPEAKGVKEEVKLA
UniProt Q92769: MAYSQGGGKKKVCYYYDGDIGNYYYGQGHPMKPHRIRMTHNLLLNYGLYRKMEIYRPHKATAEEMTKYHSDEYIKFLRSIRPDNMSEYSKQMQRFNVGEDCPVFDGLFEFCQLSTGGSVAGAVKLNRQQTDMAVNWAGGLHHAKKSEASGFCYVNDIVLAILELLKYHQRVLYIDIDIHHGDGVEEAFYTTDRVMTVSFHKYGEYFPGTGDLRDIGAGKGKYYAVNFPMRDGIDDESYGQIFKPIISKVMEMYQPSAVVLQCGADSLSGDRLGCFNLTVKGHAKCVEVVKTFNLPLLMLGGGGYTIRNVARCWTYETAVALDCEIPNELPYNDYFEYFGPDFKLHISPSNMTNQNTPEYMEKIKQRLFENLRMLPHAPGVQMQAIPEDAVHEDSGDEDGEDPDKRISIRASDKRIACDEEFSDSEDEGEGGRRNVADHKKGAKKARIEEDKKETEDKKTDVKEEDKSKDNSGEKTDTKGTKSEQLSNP

Target: T1, Flag-tagged E2F7 (UniProt Q96AV8)
T1 sequence: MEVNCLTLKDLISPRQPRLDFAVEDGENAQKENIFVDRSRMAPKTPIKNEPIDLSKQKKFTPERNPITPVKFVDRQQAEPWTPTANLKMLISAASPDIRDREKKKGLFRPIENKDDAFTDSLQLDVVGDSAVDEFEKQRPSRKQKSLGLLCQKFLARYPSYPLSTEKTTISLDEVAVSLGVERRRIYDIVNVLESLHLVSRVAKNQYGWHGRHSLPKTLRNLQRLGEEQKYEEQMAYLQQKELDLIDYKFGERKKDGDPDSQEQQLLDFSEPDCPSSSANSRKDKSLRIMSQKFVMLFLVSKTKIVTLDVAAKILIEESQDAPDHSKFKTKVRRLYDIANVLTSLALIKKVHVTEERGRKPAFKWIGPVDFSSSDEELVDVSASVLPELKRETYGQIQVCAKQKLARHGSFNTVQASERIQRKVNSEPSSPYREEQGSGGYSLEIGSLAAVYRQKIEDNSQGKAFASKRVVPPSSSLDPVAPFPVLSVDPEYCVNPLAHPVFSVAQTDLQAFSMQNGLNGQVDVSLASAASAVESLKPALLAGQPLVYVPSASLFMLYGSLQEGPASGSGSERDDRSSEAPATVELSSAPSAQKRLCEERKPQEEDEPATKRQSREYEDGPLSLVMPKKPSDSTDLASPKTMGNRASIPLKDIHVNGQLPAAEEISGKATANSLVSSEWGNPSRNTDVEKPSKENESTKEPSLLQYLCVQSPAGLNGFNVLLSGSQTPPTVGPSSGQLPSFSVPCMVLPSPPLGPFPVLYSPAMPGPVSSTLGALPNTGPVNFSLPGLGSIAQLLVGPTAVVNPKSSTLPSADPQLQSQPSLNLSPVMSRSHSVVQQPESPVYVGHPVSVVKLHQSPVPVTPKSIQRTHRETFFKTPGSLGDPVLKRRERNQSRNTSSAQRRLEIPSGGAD
Assay: affinity purification with mass spectrometry; H526 cells stably expressing Flag-tagged E2F7 or RCOR1 lysed in 1% NP40 buffer; supernatant incubated with M2 Flag resin overnight, washed with lysis buffer, eluted with 3XFlag peptide; background of Flag vector control subtracted

Substance | binding
HDAC1 (from UniProt Q13547 1-482) | binds
HDAC2 (from UniProt Q92769 1-488) | binds
RCOR (human (endogenous in H526)) | binds
